PubChem BioAssay AID1259308 – NCATS – 2017
Shown is one part, drawn at random, of about 59,000 deposited reagents. About 1,510 of all reagents (2.6%) were called active. 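Calls use total luciferase alone and ignore viability, so some active siRNAs may act by altering cell number.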 The numbers tell different reagents against one gene apart. No sequences are given here.

Test: 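Candidate targets for better recombinant protein yield in mammalian cells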 (primary screen)
Cells: human HEK293 embryonic kidney cells stably expressing firefly luciferase (HEK-CMV-Luc2-Hygro)
Knock-down reagent: single siRNA against human genes, 0.8 pmol siRNA per well
Duration: 72 h
Measured: 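Reporter luminescence and viable-cell signal on separate replicate plates, given as percent of non-targeting control and median/MAD z-scores, plus per-cell luciferase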
Reading the numbers: total luciferase, z-score and total luciferase, % of control: higher = more reporter protein produced; luciferase per cell, z-score: higher = more reporter output per viable cell; viable cells, % of control: higher = more viable cells
Call rule: 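An siRNA counts as active if its total luciferase robust z-score exceeds 3; genes with two or more such siRNAs out of three were retested with fresh siRNAs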
Meaning of the calls: active = raised luciferase; inactive = no rise

| gene symbol | reagent | total luciferase, z-score | total luciferase, % of control | luciferase per cell, z-score | viable cells, % of control | Outcome |
| --- | --- | --- | --- | --- | --- | --- |
| FNDC4 | 1 | 0.424 | 90.3 | 0.966 | 78.3 | inactive |
| FNDC4 | 2 | 0.36 | 89.1 | -0.538 | 115 | inactive |
| FNDC4 | 3 | 0.0261 | 82.4 | -0.145 | 95.7 | inactive |
| GCOM1 | 1 | 0.17 | 85.3 | -0.141 | 98.9 | inactive |
| GCOM1 | 2 | 0.187 | 85.6 | -0.225 | 102 | inactive |
| GCOM1 | 3 | 0.292 | 87.7 | -0.789 | 121 | inactive |
| FAM111B | 1 | 1.45 | 111 | 2.08 | 71.4 | inactive |
| FAM111B | 2 | -0.314 | 75.6 | -0.354 | 92.8 | inactive |
| FAM111B | 3 | -0.934 | 63.3 | -1 | 92 | inactive |
| FMN2 | 1 | 0.554 | 92.9 | 1.44 | 71.1 | inactive |
| FMN2 | 2 | -0.28 | 76.3 | -0.148 | 88.7 | inactive |
| FMN2 | 3 | -0.941 | 63.2 | -1.03 | 92.6 | inactive |
| AQP5 | 1 | -2.28 | 36.5 | -2.46 | 77.8 | inactive |
| AQP5 | 2 | 0.114 | 84.2 | 0.0262 | 93.4 | inactive |
| AQP5 | 3 | 0.232 | 86.5 | 0.341 | 88.4 | inactive |
| CCT3 | 1 | 0.943 | 101 | 1.54 | 75 | inactive |
| CCT3 | 2 | 1.68 | 115 | 1.79 | 80.5 | inactive |
| CCT3 | 3 | 2.06 | 123 | 1.36 | 95.9 | inactive |
| DPYD | 1 | -2.13 | 39.6 | -3.35 | 107 | inactive |
| DPYD | 2 | -1.2 | 58 | -0.656 | 77.1 | inactive |
| DPYD | 3 | 0.719 | 96.2 | 0.191 | 102 | inactive |
| METTL13 | 1 | -0.429 | 73.4 | -0.789 | 101 | inactive |
| METTL13 | 2 | -1.54 | 51.4 | -1.74 | 90.8 | inactive |
| METTL13 | 3 | 0.0384 | 82.6 | -0.397 | 103 | inactive |
| CPT1C | 1 | -0.183 | 78.3 | -0.725 | 106 | inactive |
| CPT1C | 2 | -0.497 | 72 | -0.127 | 83.2 | inactive |
| CPT1C | 3 | -1.43 | 53.5 | -0.549 | 69.1 | inactive |
| CNTNAP4 | 1 | -1.72 | 47.6 | -1.49 | 78.7 | inactive |
| CNTNAP4 | 2 | -0.841 | 65.2 | 0.238 | 68.4 | inactive |
| CNTNAP4 | 3 | 1.24 | 106 | 1.26 | 85.4 | inactive |
| G2E3 | 1 | -1.07 | 60.6 | 0.546 | 58.6 | inactive |
| G2E3 | 2 | -0.831 | 65.4 | -0.36 | 80.3 | inactive |
| G2E3 | 3 | -2.07 | 40.7 | -0.983 | 58.9 | inactive |
| ADAMTS14 | 1 | 2.96 | 141 | 2.43 | 83.1 | inactive |
| ADAMTS14 | 2 | -0.709 | 67.8 | -0.849 | 94.7 | inactive |
| ADAMTS14 | 3 | 2.16 | 125 | 0.597 | 119 | inactive |
| HOXD10 | 1 | 0.0507 | 82.9 | -0.4 | 103 | inactive |
| HOXD10 | 2 | 1.22 | 106 | 0.914 | 93.2 | inactive |
| HOXD10 | 3 | 0.00208 | 81.9 | -0.119 | 94.5 | inactive |
| RNASE9 | 1 | 1.8 | 118 | 0.85 | 105 | inactive |
| RNASE9 | 2 | -0.492 | 72.1 | -0.601 | 94.4 | inactive |
| RNASE9 | 3 | -0.325 | 75.4 | -1.04 | 111 | inactive |
| LIX1L | 1 | -0.234 | 77.2 | 0.395 | 77.8 | inactive |
| LIX1L | 2 | -2.09 | 40.2 | -2.57 | 88.4 | inactive |
| LIX1L | 3 | -0.111 | 79.7 | -0.788 | 110 | inactive |
| TEX50 | 1 | -0.98 | 62.4 | -1.05 | 92 | inactive |
| TEX50 | 2 | -0.62 | 69.6 | -0.579 | 90.5 | inactive |
| TEX50 | 3 | -2.02 | 41.7 | -0.0217 | 46.8 | inactive |
| CAB39L | 1 | 1.38 | 109 | 0.857 | 97.4 | inactive |
| CAB39L | 2 | -1.54 | 51.2 | -1.95 | 95.6 | inactive |
| CAB39L | 3 | 1.6 | 114 | 2.56 | 64.7 | inactive |
| ELANE | 1 | 0.418 | 90.2 | 0.27 | 93.9 | inactive |
| ELANE | 2 | 0.123 | 84.3 | -0.315 | 102 | inactive |
| ELANE | 3 | 1.57 | 113 | 0.89 | 99.9 | inactive |
| DNAH1 | 1 | -1.21 | 57.8 | -0.755 | 78.8 | inactive |
| DNAH1 | 2 | -3.67 | 8.88 | -8.21 | 86.1 | inactive |
| DNAH1 | 3 | -0.17 | 78.5 | 0.133 | 84.7 | inactive |
